Data taken from PMC12298810.

Molecular target: OsAP4-His (rice (Oryza sativa))
Test: affinity purification with mass spectrometry; total proteins from rice plants incubated with E. coli-expressed OsAP4-His; pull-down coupled with mass spectrometry; only the target purified

- binding: binds
B1: OsCATC (enzyme, UniProt Q10S82 1-492)
chain: MDPYKHRPSSSFNGPLWSTNSGAPVWNNNNSLTVGSRGPILLEDYHLVEKLANFDRERIPERVVHARGASAKGFFEVTHDITHLTCADFLRAPGVQTPVIVRFSTVIHERGSPETLRDPRGFAIKFYTREGNWDLVGNNFPVFFIRDGMKFPDMVHSLKPNPKSHVQENWRILDFFSHHPESLHMFTFLFDDIGIPADYRHMDGSGVNTYTLVNRAGKSHYVKFHWKPTCGVKSLLDDEAVTVGGTNHSHATQDLYDSIAAGNFPEWKLFIQTIDPDHEDRFDFDPLDVTKTWPEDIVPLQPVGRMVLNRNIDNFFSENEQLAFCPGIIVPGIYYSDDKLLQTRIFSYSDTQRHRLGPNYLLLPPNAPKCAHHNNHYDGFMNFMHRDEEVDYFPSRYDPAKHAPRYPIPSATLTGRREKVVIAKENNFKQPGERYRSWDPARQDRFIKRWIDALSDPRLTHEIRSIWLSYWSQADRSLGQKLASRLSAKPSM

Results are given in words; binding and its absence hold for the method and conditions named. Binding seen in cells or lysates may run through a third protein. Here binding means that the protein was enriched with, or labelled near, the bait; the list need not be complete.
